# Cell number after 72 h of treatment

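The test systems are human melanoma cell lines, treated with a pair of drugs for 72 h and then stained and imaged. The read-out is cell count (nuclei) in % of the DMSO control; lower values mean stronger growth inhibition or killing. Concentrations were fixed for each drug; these are the lower of two levels, a fifth of the higher. These are primary screening values without error estimates.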
An unselected part of the screen is shown.

Drug key:
vorinostat (0.08 µM): O=C(CCCCCCC(=O)Nc1ccccc1)NO
midostaurin (0.08 µM): CO[C@@H]1[C@H](N(C)C(=O)c2ccccc2)C[C@H]2O[C@]1(C)n1c3ccccc3c3c4c(c5c6ccccc6n2c5c31)C(=O)NC4
BMS-536924 (0.2 µM): Cc1cc(N2CCOCC2)cc2[nH]c(-c3c(NC[C@@H](O)c4cccc(Cl)c4)cc[nH]c3=O)nc12
pazopanib (0.4 µM): Cc1ccc(Nc2nccc(N(C)c3ccc4c(C)n(C)nc4c3)n2)cc1S(N)(=O)=O
GSK650394 (0.16 µM): O=C(O)c1ccc(-c2c[nH]c3ncc(-c4ccccc4)cc23)cc1C1CCCC1
nilutamide (1 µM): CC1(C)NC(=O)N(c2ccc([N+](=O)[O-])c(C(F)(F)F)c2)C1=O
SNS-314 (0.0008 µM): O=C(Nc1cccc(Cl)c1)Nc1ncc(CCNc2ncnc3ccsc23)s1

For vorinostat + GSK650394 the values were C32: 108; A101D: 93.5; A2058: 92.6; A375: 104.
For pazopanib + SNS-314 the values were C32: 82.9; A101D: 99.0; A2058: 98.2; A375: 94.8.
For pazopanib + nilutamide the values were C32: 82.8; A101D: 98.6; A2058: 92.5; A375: 102.
For GSK650394 + pazopanib the values were C32: 97.6; A101D: 114; A2058: 103; A375: 113.
For pazopanib + midostaurin the values were C32: 93.5; A101D: 73.0; A2058: 82.0; A375: 89.8.
For vorinostat + BMS-536924 the values were C32: 82.1; A101D: 97.1; A2058: 91.7; A375: 97.7.
For nilutamide + vorinostat the values were C32: 109; A101D: 88.8; A2058: 98.7; A375: 112.
For SNS-314 + nilutamide the values were C32: 92.8; A101D: 89.5; A2058: 90.3; A375: 110.
For SNS-314 + BMS-536924 the values were C32: 88.3; A101D: 107; A2058: 89.5; A375: 66.0.
For SNS-314 + GSK650394 the values were C32: 103; A101D: 101; A2058: 105; A375: 103.
For SNS-314 + midostaurin the values were C32: 70.2; A101D: 70.1; A2058: 85.8; A375: 85.8.
For BMS-536924 + nilutamide the values were C32: 105; A101D: 95.7; A2058: 101; A375: 80.8.
For midostaurin + BMS-536924 the values were C32: 89.5; A101D: 93.1; A2058: 83.2; A375: 71.0.
For GSK650394 + midostaurin the values were C32: 103; A101D: 88.3; A2058: 78.5; A375: 87.3.
For GSK650394 + nilutamide the values were C32: 97.3; A101D: 102; A2058: 94.8; A375: 85.3.
For BMS-536924 + GSK650394 the values were C32: 88.1; A101D: 99.7; A2058: 105; A375: 57.4.
For SNS-314 + vorinostat the values were C32: 84.6; A101D: 92.6; A2058: 105; A375: 121.
For pazopanib + vorinostat the values were C32: 119; A101D: 89.4; A2058: 97.4; A375: 97.7.
For BMS-536924 + pazopanib the values were C32: 105; A101D: 96.9; A2058: 85.9; A375: 79.8.
For midostaurin + vorinostat the values were C32: 91.8; A101D: 87.3; A2058: 77.1; A375: 100.

Some entries from above, unchanged:

Combination,C32,A101D,A2058,A375
SNS-314 + midostaurin,70.2,70.1,85.8,85.8
SNS-314 + GSK650394,103,101,105,103

Data from the primary screen of doi:10.1371/journal.pone.0140310, rounded.